Measured values: publication doi:10.1101/690552
No constants are given. Whether binding was seen depends on the method and setting. In cells and extracts the contact can be indirect. Some results given as binding are weak or reduced against the parent protein; the word gives no strength.

Amino acid sequences for entries named in this document (tags omitted).
UniProt O70546: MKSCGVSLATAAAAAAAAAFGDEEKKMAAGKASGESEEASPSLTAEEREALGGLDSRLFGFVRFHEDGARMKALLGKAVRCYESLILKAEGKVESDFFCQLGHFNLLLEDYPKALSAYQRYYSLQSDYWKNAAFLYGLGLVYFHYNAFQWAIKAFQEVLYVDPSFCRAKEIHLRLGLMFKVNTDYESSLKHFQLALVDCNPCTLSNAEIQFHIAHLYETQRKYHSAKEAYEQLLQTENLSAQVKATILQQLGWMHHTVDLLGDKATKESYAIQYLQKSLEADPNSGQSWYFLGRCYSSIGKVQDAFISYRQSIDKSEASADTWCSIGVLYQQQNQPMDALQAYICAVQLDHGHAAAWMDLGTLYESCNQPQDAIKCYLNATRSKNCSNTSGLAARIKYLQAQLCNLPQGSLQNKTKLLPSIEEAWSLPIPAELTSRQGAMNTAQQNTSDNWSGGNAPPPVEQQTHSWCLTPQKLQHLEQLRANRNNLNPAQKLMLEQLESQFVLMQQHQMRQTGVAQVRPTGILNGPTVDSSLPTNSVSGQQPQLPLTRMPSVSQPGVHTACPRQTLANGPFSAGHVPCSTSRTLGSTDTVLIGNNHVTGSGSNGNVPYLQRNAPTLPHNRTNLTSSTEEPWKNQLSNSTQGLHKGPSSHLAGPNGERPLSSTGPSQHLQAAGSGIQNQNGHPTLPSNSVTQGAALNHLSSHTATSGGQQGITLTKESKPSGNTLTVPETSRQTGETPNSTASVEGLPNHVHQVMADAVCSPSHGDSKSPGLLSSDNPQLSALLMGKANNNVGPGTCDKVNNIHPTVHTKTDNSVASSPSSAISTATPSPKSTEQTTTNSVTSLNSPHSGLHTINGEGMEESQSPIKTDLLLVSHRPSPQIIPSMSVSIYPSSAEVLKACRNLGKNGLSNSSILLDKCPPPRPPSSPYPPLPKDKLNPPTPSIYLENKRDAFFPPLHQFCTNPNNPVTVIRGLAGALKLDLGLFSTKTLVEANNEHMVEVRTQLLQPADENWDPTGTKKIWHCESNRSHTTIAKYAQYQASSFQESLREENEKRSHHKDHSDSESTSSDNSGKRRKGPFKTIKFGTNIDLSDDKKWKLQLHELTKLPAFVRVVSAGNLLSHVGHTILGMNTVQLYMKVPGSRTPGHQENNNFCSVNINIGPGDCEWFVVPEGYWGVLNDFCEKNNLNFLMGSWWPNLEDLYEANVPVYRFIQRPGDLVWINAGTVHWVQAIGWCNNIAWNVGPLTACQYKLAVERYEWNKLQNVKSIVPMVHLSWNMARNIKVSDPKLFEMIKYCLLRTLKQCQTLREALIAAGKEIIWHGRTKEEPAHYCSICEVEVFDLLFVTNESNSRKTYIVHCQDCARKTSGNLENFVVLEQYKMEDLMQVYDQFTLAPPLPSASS
UniProt P22361: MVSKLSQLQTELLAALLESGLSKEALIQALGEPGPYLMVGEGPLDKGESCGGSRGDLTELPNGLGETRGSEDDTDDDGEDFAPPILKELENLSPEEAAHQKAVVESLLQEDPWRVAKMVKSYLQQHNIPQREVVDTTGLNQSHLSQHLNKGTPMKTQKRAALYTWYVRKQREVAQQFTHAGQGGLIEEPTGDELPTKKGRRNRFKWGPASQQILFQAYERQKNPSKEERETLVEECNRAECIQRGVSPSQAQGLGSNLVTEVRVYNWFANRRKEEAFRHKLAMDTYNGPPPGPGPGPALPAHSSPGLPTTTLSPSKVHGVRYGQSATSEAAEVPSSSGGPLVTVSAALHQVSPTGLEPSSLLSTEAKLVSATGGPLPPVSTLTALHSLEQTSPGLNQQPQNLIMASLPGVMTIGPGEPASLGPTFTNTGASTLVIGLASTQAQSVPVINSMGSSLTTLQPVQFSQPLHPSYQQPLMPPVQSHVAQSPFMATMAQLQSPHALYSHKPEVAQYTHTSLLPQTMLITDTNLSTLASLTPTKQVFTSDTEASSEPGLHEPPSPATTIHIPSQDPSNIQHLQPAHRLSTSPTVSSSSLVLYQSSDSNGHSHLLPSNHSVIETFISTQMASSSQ

Target: UTX (mouse (endogenous in 266-6)) (UniProt O70546)
Assay: co-IP

HNF1A (from UniProt P22361 1-628)
binding: binds
